From article doi:10.1101/2025.06.16.659985, “Dynamic assembly of malate dehydrogenase-citrate synthase multienzyme complex in the mitochondria” (bioRxiv, 2025)
No constants are given. Whether binding was seen depends on the method and setting. For some assays here: In cells and extracts the contact can be indirect. Some binding calls cover weakened binding; strength is not graded here. Where a sequence is shown, tags or fusion partners need not be part of it. Values belong to the binder of their own block, whether it stands above or below them.

Assays:
[1] = molecular target: T1, MDH1 (yeast mitochondrial malate dehydrogenase) fused with the small nanoBiT subunit (SmBiT) (Saccharomyces cerevisiae) (UniProt P17505); assay: split reporter; nanoBiT split luciferase in living yeast cells (MDH1-SmBiT, CIT1-LgBiT from the native loci), furimazine, 28°C; cells in SD-Raff or SD-Acet; treatments: glucose, fructose, sucrose, galactose, phosphate, acetate, aminooxyacetate, malonate, cyanide, antimycin, oligomycin
T1 sequence: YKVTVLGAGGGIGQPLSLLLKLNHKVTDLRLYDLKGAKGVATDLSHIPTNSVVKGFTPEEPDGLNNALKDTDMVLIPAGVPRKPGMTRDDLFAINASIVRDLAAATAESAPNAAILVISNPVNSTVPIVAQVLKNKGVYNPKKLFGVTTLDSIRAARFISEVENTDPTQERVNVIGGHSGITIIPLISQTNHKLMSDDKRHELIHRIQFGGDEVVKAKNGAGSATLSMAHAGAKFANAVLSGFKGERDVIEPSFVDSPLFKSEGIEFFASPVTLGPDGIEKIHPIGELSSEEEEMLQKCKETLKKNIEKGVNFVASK

[2] = molecular target: T2, recombinant yeast MDH1, fluorescently labeled (yeast (Saccharomyces cerevisiae)) (UniProt P17505); assay: MST; labeled MDH1 as target, CIT1 titrated; MST buffer (50 mM Tris-HCl pH 8, 150 mM NaCl, 10 mM MgCl2, 5 mM DTT, 0.05% Tween-20) with 10 mM malate, fumarate, α-ketoglutarate, succinate, aspartate or glutamate, or with ATP (5, 2.5, 1.25 mM); both purified
T2 sequence (chain, labeled with Protein Labeling Kit RED-NHS 2nd Generation (NanoTemper)): T1 sequence

binding [1]: binds
B1: CIT1 (yeast mitochondrial citrate synthase) fused with the large nanoBiT subunit (LgBiT) (enzyme, UniProt P00890 38-479)
chain: SSASEQTLKERFAEIIPAKAEEIKKFKKEHGKTVIGEVLLEQAYGGMRGIKGLVWEGSVLDPEEGIRFRGRTIPEIQRELPKAEGSTEPLPEALFWLLLTGEIPTDAQVKALSADLAARSEIPEHVIQLLDSLPKDLHPMAQFSIAVTALESESKFAKAYAQGVSKKEYWSYTFEDSLDLLGKLPVIASKIYRNVFKDGKITSTDPNADYGKNLAQLLGYENKDFIDLMRLYLTIHSDHEGGNVSAHTTHLVGSALSSPYLSLAAGLNGLAGPLHGRANQEVLEWLFKLREEVKGDYSKETIEKYLWDTLNAGRVVPGYGHAVLRKTDPRYTAQREFALKHFPDYELFKLVSTIYEVAPGVLTKHGKTKNPWPNVDSHSGVLLQYYGLTEASFYTVLFGVARAIGVLPQLIIDRAVGAPIERPKSFSTEKYKELVKKIESKN

B2: recombinant yeast CIT1 (enzyme)
chain: B1 chain
binding [2]: binds
